Our source for the binding values is article PMC7346121.

Amino acid sequences for entries named in this document (tags omitted).
UniProt P40763: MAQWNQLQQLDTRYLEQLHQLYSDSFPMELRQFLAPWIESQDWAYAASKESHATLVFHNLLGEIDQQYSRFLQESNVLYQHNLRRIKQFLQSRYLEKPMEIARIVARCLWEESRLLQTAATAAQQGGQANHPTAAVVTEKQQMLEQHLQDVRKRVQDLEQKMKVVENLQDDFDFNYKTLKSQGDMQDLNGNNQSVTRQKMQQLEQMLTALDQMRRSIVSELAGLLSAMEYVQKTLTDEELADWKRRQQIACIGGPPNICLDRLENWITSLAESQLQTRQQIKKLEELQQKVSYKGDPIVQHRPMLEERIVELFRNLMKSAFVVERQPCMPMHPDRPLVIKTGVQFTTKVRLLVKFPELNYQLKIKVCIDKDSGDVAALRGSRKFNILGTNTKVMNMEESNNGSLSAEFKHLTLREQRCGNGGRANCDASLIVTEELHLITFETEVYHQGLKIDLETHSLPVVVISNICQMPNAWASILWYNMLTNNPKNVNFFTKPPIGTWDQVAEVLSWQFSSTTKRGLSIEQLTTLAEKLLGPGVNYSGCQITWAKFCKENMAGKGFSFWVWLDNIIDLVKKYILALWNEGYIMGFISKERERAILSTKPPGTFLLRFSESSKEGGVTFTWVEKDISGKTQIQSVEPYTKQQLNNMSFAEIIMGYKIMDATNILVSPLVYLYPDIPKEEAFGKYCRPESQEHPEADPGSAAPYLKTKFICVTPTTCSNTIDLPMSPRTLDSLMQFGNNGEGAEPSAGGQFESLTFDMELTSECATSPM

The target in the assay is Signal transducer and activator of transcription 3 (STAT3), FLAG-tagged (UniProt P40763). The assay can be described thus: co-IP; HepG2 cells transfected with HA-SMILE and FLAG-STAT3, with or without IL-6 for 12 h; whole-cell lysate in IP lysis buffer, anti-FLAG M2 affinity gel for 16 h, elution with 3X FLAG peptide, blot with anti-HA and anti-FLAG.

Results are given in words; binding and its absence hold for the method and conditions named. Binding seen in cells or lysates may run through a third protein. Some binding calls cover weakened binding; strength is not graded here. Sequences can lack the tags named with a protein.

B1: Small heterodimer partner-interacting leucine zipper protein (SMILE)/CREBZF, HA-tagged (pcDNA3-HA-hSMILE) (protein, UniProt Q9NS37 1-354)
chain: MRHSLTKLLAASGSNSPTRSESPEPAATCSLPSDLTRAAAGEEETAAAGSPGRKQQFGDEGELEAGRGSRGGVAVRAPSPEEMEEEAIASLPGEETEDMDFLSGLELADLLDPRQPDWHLDPGLSSPGPLSSSGGGSDSGGLWRGDDDDEAAAAEMQRFSDLLQRLLNGIGGCSSSSDSGSAEKRRRKSPGGGGGGGSGNDNNQAATKSPRKAAAAAARLNRLKKKEYVMGLESRVRGLAAENQELRAENRELGKRVQALQEESRYLRAVLANETGLARLLSRLSGVGLRLTTSLFRDSPAGDHDYALPVGKQKQDLLEEDDSAGGVCLHVDKDKVSVEFCSACARKASSSLKM
Turning to B1, the binding result is on record as “binds”.
